PubChem BioAssay AID1259405 | NCATS – 2018

Test: 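Knock-downs that lift recombinant protein yield in hamster ovary cells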 (primary screen)
Cell system: Chinese hamster CHO-K1 ovary cells with stable secreted eGFP expression
Knock-down reagent: single siRNA against mouse genes, 0.8 pmol siRNA per well (2 µl of 400 nM stock)
Duration: 3 days
Detection: 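Per-well intracellular GFP measured by laser scanning cytometry, plus viability from ATP luminescence, each relative to plate median of non-targeting control wells, in %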
Reading the numbers: GFP, % of control: higher = more GFP per well, higher productivity; viability (ATP), % of control: higher = more viable cells (more ATP)
Hit rule: 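a knock-down is called active if GFP reaches 120% or more of non-targeting control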
This is a random part of about 50,000 reagents tested. Of all reagents, about 4,000 (8%) are marked active. 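Mouse siRNA library applied to hamster cells; one well for each siRNA.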 Reagents against one gene are numbered here.

Jup #1 | GFP, % of control: 141; viability (ATP), % of control: 112; Outcome: active
Jup #2 | GFP, % of control: 87.9; viability (ATP), % of control: 98.2; Outcome: inactive
Jup #3 | GFP, % of control: 94.2; viability (ATP), % of control: 101; Outcome: inactive
Mdfic #1 | GFP, % of control: 39.3; viability (ATP), % of control: 54; Outcome: inactive
Mdfic #2 | GFP, % of control: 79.2; viability (ATP), % of control: 68.7; Outcome: inactive
Mdfic #3 | GFP, % of control: 34.1; viability (ATP), % of control: 41.2; Outcome: inactive
Clec5a #1 | GFP, % of control: 82.8; viability (ATP), % of control: 112; Outcome: inactive
Clec5a #2 | GFP, % of control: 77.4; viability (ATP), % of control: 63.7; Outcome: inactive
Lrp1b #1 | GFP, % of control: 58.5; viability (ATP), % of control: 46; Outcome: inactive
Lrp1b #2 | GFP, % of control: 72.7; viability (ATP), % of control: 60.3; Outcome: inactive
Lrp1b #3 | GFP, % of control: 77.3; viability (ATP), % of control: 51.8; Outcome: inactive
Rfpl4 #1 | GFP, % of control: 80.4; viability (ATP), % of control: 69.3; Outcome: inactive
Rfpl4 #2 | GFP, % of control: 61.6; viability (ATP), % of control: 56.5; Outcome: inactive
Rfpl4 #3 | GFP, % of control: 69.6; viability (ATP), % of control: 90.5; Outcome: inactive
Hoxa7 #1 | GFP, % of control: 126; viability (ATP), % of control: 87.8; Outcome: active
Hoxa7 #2 | GFP, % of control: 38.3; viability (ATP), % of control: 47; Outcome: inactive
Hoxa7 #3 | GFP, % of control: 80.8; viability (ATP), % of control: 95.6; Outcome: inactive
Tbc1d10a #1 | GFP, % of control: 86.5; viability (ATP), % of control: 82.7; Outcome: inactive
Tbc1d10a #2 | GFP, % of control: 132; viability (ATP), % of control: 94.4; Outcome: active
Tbc1d10a #3 | GFP, % of control: 87; viability (ATP), % of control: 45.2; Outcome: inactive
Cpa3 #1 | GFP, % of control: 101; viability (ATP), % of control: 85.3; Outcome: inactive
Cpa3 #2 | GFP, % of control: 37.4; viability (ATP), % of control: 48.2; Outcome: inactive
Cpa3 #3 | GFP, % of control: 71.5; viability (ATP), % of control: 49.5; Outcome: inactive
Ppid #1 | GFP, % of control: 118; viability (ATP), % of control: 131; Outcome: inactive
Ppid #2 | GFP, % of control: 67.4; viability (ATP), % of control: 50.2; Outcome: inactive
Ppid #3 | GFP, % of control: 86.8; viability (ATP), % of control: 73.1; Outcome: inactive
G3bp2 #1 | GFP, % of control: 65.9; viability (ATP), % of control: 77.9; Outcome: inactive
G3bp2 #2 | GFP, % of control: 56.3; viability (ATP), % of control: 77.8; Outcome: inactive
G3bp2 #3 | GFP, % of control: 69.3; viability (ATP), % of control: 40.8; Outcome: inactive
Lpar3 #1 | GFP, % of control: 55.2; viability (ATP), % of control: 45.1; Outcome: inactive
Lpar3 #2 | GFP, % of control: 65.6; viability (ATP), % of control: 37.3; Outcome: inactive
Lpar3 #3 | GFP, % of control: 98.8; viability (ATP), % of control: 50.5; Outcome: inactive
Mrpl57 #1 | GFP, % of control: 56; viability (ATP), % of control: 43.5; Outcome: inactive
Mrpl57 #2 | GFP, % of control: 97.4; viability (ATP), % of control: 82.9; Outcome: inactive
Mrpl57 #3 | GFP, % of control: 68; viability (ATP), % of control: 58.8; Outcome: inactive
Pth2 #1 | GFP, % of control: 55.2; viability (ATP), % of control: 59.5; Outcome: inactive
Pth2 #2 | GFP, % of control: 60.1; viability (ATP), % of control: 80.1; Outcome: inactive
Pth2 #3 | GFP, % of control: 37.1; viability (ATP), % of control: 49.2; Outcome: inactive
Il1rapl2 #1 | GFP, % of control: 85.3; viability (ATP), % of control: 39.6; Outcome: inactive
Il1rapl2 #2 | GFP, % of control: 75.1; viability (ATP), % of control: 77.2; Outcome: inactive
Il1rapl2 #3 | GFP, % of control: 51.4; viability (ATP), % of control: 52.6; Outcome: inactive

Hits (from the list above):
Jup #1 | GFP, % of control: 141; viability (ATP), % of control: 112; Outcome: active
Hoxa7 #1 | GFP, % of control: 126; viability (ATP), % of control: 87.8; Outcome: active
Tbc1d10a #2 | GFP, % of control: 132; viability (ATP), % of control: 94.4; Outcome: active
